# Laboratory results published in patent US10336788B2 (Moerae Matrix, Inc., priority 2014, dated 2019).
# Assay: general procedure: Fmoc solid-phase peptide synthesis; Fmoc-Ala-Wang Resin; HOBt/DIC; recoupling by symmetrical anhydride (DIC)
# Conditions: acetate salt
sequence,measurement,setting,value
YARAAARQARAKALARQLGVAA,step yield,purification step,Approximately 50-55%
same,crude mass,whole synthesis,"approximately 1,250 grams"

# Plain letter strings leave the end groups untold.
